Data: publication PMC3815127
These are yes or no findings as the source states them, for the method shown. In cells and extracts the contact can be indirect. A result given as binding can be weak or reduced; the word gives no strength.

By UniProt entry, the sequences of proteins in these tests, tags left out. Where a name states a change or a piece, a line headed by the entry shows the natural chain unless it says otherwise.
UniProt Q14974: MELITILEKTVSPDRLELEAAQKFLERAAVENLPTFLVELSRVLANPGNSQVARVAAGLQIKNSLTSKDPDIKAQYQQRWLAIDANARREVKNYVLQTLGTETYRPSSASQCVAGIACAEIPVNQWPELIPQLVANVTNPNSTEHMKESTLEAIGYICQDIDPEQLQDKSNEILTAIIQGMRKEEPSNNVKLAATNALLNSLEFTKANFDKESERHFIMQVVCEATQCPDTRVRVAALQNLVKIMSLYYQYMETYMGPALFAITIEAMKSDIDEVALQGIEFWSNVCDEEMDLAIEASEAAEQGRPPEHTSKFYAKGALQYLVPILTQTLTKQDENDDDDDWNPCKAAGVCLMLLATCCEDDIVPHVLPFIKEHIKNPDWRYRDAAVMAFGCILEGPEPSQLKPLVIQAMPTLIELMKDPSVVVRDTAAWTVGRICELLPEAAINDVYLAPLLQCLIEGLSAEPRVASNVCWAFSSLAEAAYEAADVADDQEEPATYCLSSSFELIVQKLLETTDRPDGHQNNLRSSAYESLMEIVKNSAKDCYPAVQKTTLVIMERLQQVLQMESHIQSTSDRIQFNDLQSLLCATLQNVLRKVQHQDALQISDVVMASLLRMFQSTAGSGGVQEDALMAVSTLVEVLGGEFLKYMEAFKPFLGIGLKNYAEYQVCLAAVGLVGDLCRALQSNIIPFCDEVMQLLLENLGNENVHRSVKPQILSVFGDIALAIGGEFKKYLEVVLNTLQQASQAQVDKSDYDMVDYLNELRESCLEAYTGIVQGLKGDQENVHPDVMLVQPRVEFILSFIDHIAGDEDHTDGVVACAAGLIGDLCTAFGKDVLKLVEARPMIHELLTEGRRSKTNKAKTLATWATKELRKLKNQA
UniProt P17028: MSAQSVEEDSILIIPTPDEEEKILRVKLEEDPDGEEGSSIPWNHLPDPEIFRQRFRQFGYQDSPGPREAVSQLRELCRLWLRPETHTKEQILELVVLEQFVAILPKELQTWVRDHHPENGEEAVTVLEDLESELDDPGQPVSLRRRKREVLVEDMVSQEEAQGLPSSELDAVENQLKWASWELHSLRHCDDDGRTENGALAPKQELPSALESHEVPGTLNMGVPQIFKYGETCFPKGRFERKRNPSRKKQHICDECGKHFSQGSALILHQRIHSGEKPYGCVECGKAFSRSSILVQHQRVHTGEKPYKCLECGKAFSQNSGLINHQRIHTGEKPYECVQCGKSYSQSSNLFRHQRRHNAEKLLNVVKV

Biological target: Importin-β1 (human (endogenous in HEK293)) (UniProt Q14974)
Assay: co-IP; Importin-β1 immunoprecipitated from 500 µg pre-cleared whole cell lysate of HEK293 cells transiently expressing GFP-tagged ZNF24 proteins, 1.0 µg Karyopherin-β1 antibody (or mouse IgG as control) 2 h, Protein A/G beads overnight at 4°C; blotted with anti-GFP or anti-importin

Row | binding | Substance
1 | binds | ZNF24-GFP R290A mutant (from UniProt P17028)
2 | binds | ZNF24-GFP K286A mutant (from UniProt P17028)
